Data from the primary screen of doi:10.1371/journal.pone.0140310, rounded.

Drugs:
L-779450, 0.2 µM: Oc1cc(-c2nc(-c3ccccc3)[nH]c2-c2ccncc2)ccc1Cl
ZM336372, 2 µM: Cc1ccc(NC(=O)c2cccc(N(C)C)c2)cc1NC(=O)c1ccc(O)cc1
palbociclib, 0.04 µM: CC(=O)c1c(C)c2cnc(Nc3ccc(N4CCNCC4)cn3)nc2n(C2CCCC2)c1=O
GW9662, 2 µM: O=C(Nc1ccccc1)c1cc([N+](=O)[O-])ccc1Cl
OSI-906, 0.4 µM: C[C@]1(O)C[C@@H](c2nc(-c3ccc4ccc(-c5ccccc5)nc4c3)c3c(N)nccn32)C1
GW441756, 0.4 µM: Cn1cc(/C=C2\C(=O)Nc3cccnc32)c2ccccc21
CP-690550, 1 µM: C[C@@H]1CCN(C(=O)CC#N)C[C@@H]1N(C)c1ncnc2[nH]ccc12
NVP-BEZ235, 0.004 µM: Cn1c(=O)n(-c2ccc(C(C)(C)C#N)cc2)c2c3cc(-c4cnc5ccccc5c4)ccc3ncc21
BMS-536924, 0.2 µM: Cc1cc(N2CCOCC2)cc2[nH]c(-c3c(NC[C@@H](O)c4cccc(Cl)c4)cc[nH]c3=O)nc12

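Human melanoma cells were exposed to two drugs together for 72 h in 1,536-well plates and read by automated microscopy after fixing and staining. The read-out is cell count (nuclei) in % of the DMSO control; lower values mean stronger growth inhibition or killing. Concentrations were fixed for each drug; these are the lower of two levels, a fifth of the higher. The file gives one value for each pair and line, without errors, so small differences may be noise.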 An unselected part of the screen is shown.

Results for NVP-BEZ235 + ZM336372 are A101D: 103; IPC-298: 78.4.
Results for OSI-906 + BMS-536924 are A101D: 93.0; IPC-298: 89.8.
Results for NVP-BEZ235 + BMS-536924 are A101D: 94.7; IPC-298: 89.0.
Results for ZM336372 + CP-690550 are A101D: 101; IPC-298: 85.7.
Results for GW9662 + GW441756 are A101D: 92.3; IPC-298: 102.
Results for palbociclib + OSI-906 are A101D: 93.3; IPC-298: 81.8.
Results for BMS-536924 + GW441756 are A101D: 100; IPC-298: 101.
Results for GW9662 + OSI-906 are A101D: 85.3; IPC-298: 97.4.
Results for NVP-BEZ235 + GW441756 are A101D: 98.6; IPC-298: 90.7.
Results for GW9662 + NVP-BEZ235 are A101D: 92.0; IPC-298: 108.
Results for OSI-906 + ZM336372 are A101D: 114; IPC-298: 89.5.
Results for GW441756 + ZM336372 are A101D: 89.8; IPC-298: 79.5.
Results for palbociclib + BMS-536924 are A101D: 72.6; IPC-298: 72.8.
Results for NVP-BEZ235 + palbociclib are A101D: 68.1; IPC-298: 81.9.
Results for OSI-906 + L-779450 are A101D: 93.2; IPC-298: 82.3.
Results for ZM336372 + GW9662 are A101D: 86.4; IPC-298: 88.2.
Results for L-779450 + GW9662 are A101D: 101; IPC-298: 78.8.
Results for L-779450 + NVP-BEZ235 are A101D: 88.4; IPC-298: 74.3.
Results for ZM336372 + L-779450 are A101D: 105; IPC-298: 78.7.
Results for BMS-536924 + L-779450 are A101D: 93.0; IPC-298: 88.3.
Results for OSI-906 + CP-690550 are A101D: 94.8; IPC-298: 87.6.
Results for L-779450 + CP-690550 are A101D: 98.7; IPC-298: 93.8.
Results for NVP-BEZ235 + CP-690550 are A101D: 109; IPC-298: 96.2.
Results for CP-690550 + palbociclib are A101D: 75.6; IPC-298: 86.6.
Results for palbociclib + ZM336372 are A101D: 83.5; IPC-298: 78.4.
Results for GW441756 + CP-690550 are A101D: 101; IPC-298: 100.

For reference, 2 entries once more:

| Drugs | A101D | IPC-298 |
|---|---|---|
| ZM336372 + L-779450 | 105 | 78.7 |
| L-779450 + NVP-BEZ235 | 88.4 | 74.3 |